The target in the test is ΦKZ014, C-terminally TEV-3×FLAG tagged (Pseudomonas phage ΦKZ). Kind of test: affinity purification with mass spectrometry.

Results are given in words; binding and its absence hold for the method and conditions named. Binding seen in cells or lysates may run through a third protein. Here binding means that the protein was enriched with, or labelled near, the bait; the list need not be complete.

B1: 50S ribosomal protein uL30 (protein, UniProt Q9HWF3 1-58)
chain: MATVKVTLVKSLNGRLANHKACVKGLGLRRINHTVEVQDTPENRGMINKAYYLLRVEG
As to B1, the binding entry is “binds”.

B2: 50S ribosomal protein bL35 (protein, UniProt Q9I0A1 1-64)
chain: MPKMKTKSGAAKRFKKTAGGLKHKHAFKSHILTKMTTKRKRQLRGTSMLNKSDVARVERSLRLR
On to B2, for which the binding entry is on record as “binds”.

These data come from publication doi:10.1101/2023.02.26.530069.
